Results are given in words; binding and its absence hold for the method and conditions named. Some results given as binding are weak or reduced against the parent protein; the word gives no strength. For part of these data: Where a sequence is shown, tags or fusion partners need not be part of it.
T1: Peptide 54 (human)
T1 sequence (peptide): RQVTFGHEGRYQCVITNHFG

T2: Purified human LRIG1 extracellular domain fused to a HIS tag (R&D Systems) (human) (UniProt Q96JA1)
T2 sequence: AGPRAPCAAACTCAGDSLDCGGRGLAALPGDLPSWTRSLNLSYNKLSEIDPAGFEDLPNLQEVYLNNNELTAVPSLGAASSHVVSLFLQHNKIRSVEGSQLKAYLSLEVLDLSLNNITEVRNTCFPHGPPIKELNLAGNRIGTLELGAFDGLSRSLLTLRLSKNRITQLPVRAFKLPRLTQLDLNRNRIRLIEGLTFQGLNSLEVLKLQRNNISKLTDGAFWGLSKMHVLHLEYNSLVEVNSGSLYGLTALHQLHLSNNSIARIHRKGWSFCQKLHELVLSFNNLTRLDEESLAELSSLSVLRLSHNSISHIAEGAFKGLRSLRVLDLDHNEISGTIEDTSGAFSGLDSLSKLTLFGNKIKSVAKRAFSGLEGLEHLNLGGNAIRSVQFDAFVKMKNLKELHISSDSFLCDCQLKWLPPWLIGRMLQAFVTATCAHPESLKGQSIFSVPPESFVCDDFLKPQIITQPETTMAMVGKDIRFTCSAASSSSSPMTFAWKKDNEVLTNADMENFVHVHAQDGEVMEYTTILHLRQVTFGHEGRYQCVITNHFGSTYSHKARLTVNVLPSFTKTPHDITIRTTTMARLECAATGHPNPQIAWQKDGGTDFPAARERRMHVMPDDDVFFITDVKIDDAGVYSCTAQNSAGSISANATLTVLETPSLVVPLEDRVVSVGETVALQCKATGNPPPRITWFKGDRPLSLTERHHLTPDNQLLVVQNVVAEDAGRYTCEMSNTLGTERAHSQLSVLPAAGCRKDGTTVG


Experiments:
Peptide 54 (human) [1] = target: T1, Peptide 54 (human); test: peptide ELISA, antibody 0.1 ug/ml
Peptide 54 (human) [2] = target: T1, Peptide 54 (human); test: peptide ELISA (Example 5, retold in Example 6)
[3] = target: T2, Purified human LRIG1 extracellular domain fused to a HIS tag (R&D Systems) (human); test: biosensor binning (Gator), hLRIG1-His amine-coupled to the probe

| binding (Peptide 54 (human) [1]) | binding (Peptide 54 (human) [2]) | binding [3] | Binder |
| --- | --- | --- | --- |
| binds | binds | binds | mab4 (IMT300) (antibody, V domains shown, also called hLRIG1 mAb IMT300; Immutics PP14384) VH: QVQLVQSGAEVKKPGASVKVSCKASGYTFTSYYLHWVRQAPGQRLEWMGWIYPGNVNTKYNQKFQGRVTITADKSASTAYMELSSLRSEDTAVYFCAREELGGFAYWGQGTLVTVSS VL: DIQMTQSPSSVSASIGDRVTITCRASQDISNYLSWYQQKPGKAPKLLIYYTSILHSGVPSRFSGSGSGTDYTLTISSLQPEDFATYFCQQGNTLPRTFGGGTKVEIK |
| binds | binds | binds | mab6 (antibody, V domains shown, also called Immutics PP14387) VH: QVQLVQSGAEVKKPGASVKVSCKASGYTFTSYYLHWVRQAPGQRLEWIGWIYPGNVNTKYNEKFQGRVTLTADKSASTAYMELSSLRSEDTAVYFCAREELGGFAYWGQGTLVTVSS VL: DIQMTQSPSSVSASIGDRVTITCRASQDISNYLSWYQQKPGKAPKLLIYYTSILHSGVPSRFSGSGSGTDYTLTISSLQPEDFATYFCQQGNTLPRTFGGGTKVEIK |

Reference: patent US20210085785A1 (TRUEBINDING, published 2021)
